# In all, about 33,000 sequences were measured (“E-score (-0.5 to 0.5)”: median about -0.016, highest 2% from about 0.3 on). The list shows a part of the results.
# Biological target: T1, Yer184c (UniProt P39961)
# T1 sequence: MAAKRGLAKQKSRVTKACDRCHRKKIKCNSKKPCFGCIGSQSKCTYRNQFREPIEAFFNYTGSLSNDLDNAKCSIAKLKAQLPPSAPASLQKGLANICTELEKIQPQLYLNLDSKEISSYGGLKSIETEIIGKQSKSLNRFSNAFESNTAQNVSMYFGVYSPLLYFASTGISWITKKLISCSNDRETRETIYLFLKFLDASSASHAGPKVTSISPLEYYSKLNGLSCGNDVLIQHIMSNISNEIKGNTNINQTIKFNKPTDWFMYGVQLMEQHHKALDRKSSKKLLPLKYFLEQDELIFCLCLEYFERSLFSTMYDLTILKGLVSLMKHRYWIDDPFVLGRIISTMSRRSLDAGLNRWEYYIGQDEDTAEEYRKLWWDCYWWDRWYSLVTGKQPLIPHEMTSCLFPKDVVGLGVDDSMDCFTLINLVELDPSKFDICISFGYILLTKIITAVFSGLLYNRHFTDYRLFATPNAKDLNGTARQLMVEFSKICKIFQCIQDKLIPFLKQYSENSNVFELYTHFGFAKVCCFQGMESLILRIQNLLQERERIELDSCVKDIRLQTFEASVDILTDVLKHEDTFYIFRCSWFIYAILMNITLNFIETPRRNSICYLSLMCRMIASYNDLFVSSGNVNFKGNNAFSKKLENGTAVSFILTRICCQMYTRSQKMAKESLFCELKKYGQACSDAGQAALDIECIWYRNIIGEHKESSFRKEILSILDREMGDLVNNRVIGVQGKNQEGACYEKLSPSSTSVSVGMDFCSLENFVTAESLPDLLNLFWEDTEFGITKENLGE
# Test: PBM E-score (8-mer binding enrichment) (E-score (-0.5 to 0.5)); higher = stronger / more preferred TF binding
# Conditions: protein concentration: 100 nM; construct: GST-full length
# How it was run: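 Masliner-normalised scans of fluorescent anti-GST signal were the basis for scoring. That signal came from GST-tagged yeast transcription factors applied at about 100-200 nM to double-stranded universal all-10-mer Agilent arrays on fresh or once-stripped slides. Each ungapped eight-base word, pooled with its reverse complement, received an E-score from the Universal PBM Analysis Suite.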
row,Sequence,PBM E-score
1,ATGAGAAT,0.204
2,CGCACGAG,-0.141
3,CTATACAG,0.0752
4,AGTTCTTA,0.0659
5,CACGTCTA,-0.263
6,GGTTATAC,-0.121
7,CGGTGCGC,0.0189
8,CACTGCTC,-0.00605
9,AGATCGCA,0.0384
10,AACAGTCC,-0.185
11,AGGAAGCG,-0.042
12,GGCGGGCA,-0.0135
13,ACGGACCT,0.0643
14,CGAAGAGA,0.181
15,AGGCATCA,-0.163
16,CGCCGACC,0.135
17,CCGCACCC,-0.0287
18,ACGCCCAG,-0.225
19,TCAGATAA,0.153
20,AGAAAGCT,0.107
21,CCGCTAGA,-0.231
22,GGGACTGA,-0.215
23,CTGGATGA,-0.00515
24,AGAAGGTG,0.0161
25,GGGGTAAA,0.0458

row,Sequence,PBM E-score
1,AGTAGGAG,-0.156
2,ACCGTTCC,0.28
3,CCGTGAGC,-0.0292
4,AGAGACGA,0.0423
5,GCAGTGGC,-0.00847
6,CACCAGTA,-0.156
7,ATAGGGGC,-0.319
8,GAACTGGC,-0.0976
9,CCGAATCG,0.263
10,AGACCACA,-0.0838
11,AGAAGAGC,-0.03
12,ACTACGCG,-0.00829
13,AAACGTCG,-0.044
14,AATTATGT,0.157
15,AAGTGCCA,-0.0635
16,GTTGTGGA,-0.053
17,GGATGCAA,0.022
18,CGAAAAAC,0.101
19,CCCGTCCC,-0.22
20,GTAACTGA,-0.109
21,CGAGCATA,-0.149
22,CAAGGCTC,-0.354
23,AAACTGGA,0.0243
24,CATTACAA,0.0533
25,TCAACCGA,0.226

row,Sequence,PBM E-score
1,CAGTATGG,0.0408
2,CCACAGTC,-0.3
3,CAGCGTAA,0.0438
4,CGATCGTC,0.0985
5,AAACATAT,0.281
6,ACCTTAGC,-0.142
7,CTAGAACA,0.248
8,CCGTAAGA,-0.0592
9,AACCCCGA,0.0551
10,TGAGCGAA,0.0953
11,GGGCCCCC,-0.304
12,AGCGTACG,-0.172
13,AGGGTCAT,-0.295
14,AACGTCGT,-0.0549
15,GTGTAGTA,-0.0806
16,CTGGCTGA,-0.134
17,GACCTAAA,0.0912
18,AGGTAGGA,-0.06
19,ACACGATA,0.248
20,GAAAGCAA,0.248
21,TGGTCCAA,-0.172
22,CTAGGGAG,-0.261
23,AATCGGTA,0.102
24,AGTTGGAA,0.0474
25,TCACCTAA,0.163

row,Sequence,PBM E-score
1,GAATGTGA,-0.082
2,CATTCGCA,-0.0503
3,GAGAGCTC,-0.151
4,AGATCCAG,-0.0113
5,ATCAGTTC,-0.122
6,CTCCACTA,-0.046
7,AATCGCGT,0.0463
8,AGTCGCAA,-0.0383
9,ATTAATAG,0.181
10,CCCACCAA,-0.204
11,AAGGCCCT,-0.133
12,CTCAAAGC,0.114
13,CAGTGTCC,0.00844
14,CCACCTTA,-0.163
15,GTCAGGAA,0.0403
16,ATAGCTTG,0.025
17,AACCGGCT,0.264
18,ACGCTGAT,-0.0115
19,GTAAAATA,0.158
20,AATGAGCG,0.122
21,CGATATCC,0.166
22,AATTGGTG,-0.0396
23,GCGTCCAC,-0.0319
24,ACGGCGTC,0.0138
25,CGTATAAC,0.106

row,Sequence,PBM E-score
1,CATTTCCA,0.0456
2,GCTTAAAA,0.194
3,ATACTGCC,0.0554
4,AACAAGTC,-0.0759
5,AAGACATA,-0.183
6,CTCGGGGA,0.079
7,ACATCTAT,0.215
8,CTCCAGAA,-0.161
9,GGACATAA,0.0544
10,AGCACCCC,-0.249
11,CGCGGGAA,0.311
12,AGTGATGA,-0.111
13,GTGAGTTA,-0.0335
14,CTCGCAAG,0.0257
15,AGTATTAA,0.163
16,GGAGATCA,0.0983
17,CAACTGAA,-0.0313
18,ATGGGGCA,-0.252
19,CCGCCGAA,0.313
20,ACCCAGGC,0.0744
21,CTCGCCCC,-0.247
22,TAGTAAGA,0.125
23,ATAATAAG,0.153
24,CGGCGGTC,-0.0364
25,CCTCACTC,-0.0394

row,Sequence,PBM E-score
1,AGGCTAAC,0.00771
2,GTGTTGTA,0.0923
3,CAACACCC,-0.0822
4,CCATCCTA,-0.11
5,CGGGCCAC,0.0151
6,TAGAATCA,0.00352
7,ATTAACCC,0.0664
8,ACTAGTGA,-0.172
9,CTCCCTTA,-0.268
10,CCCATGTC,-0.0199
11,GCCCAAGC,-0.0265
12,CACGGGAC,0.0655
13,AATGCGAC,0.0858
14,GCAGCCGC,0.0669
15,CTAAATTA,0.202
16,GGTCGCCA,-0.184
17,AGTAGCGC,-0.0551
18,GCTTGGAC,-0.233
19,AAAACTTG,0.114
20,CTCCATCC,-0.183
21,AACAACCA,0.045
22,GGTATGGA,-0.125
23,ACGCGTAG,-0.127
24,CATCACGG,-0.056
25,GGATCTAC,0.076

row,Sequence,PBM E-score
1,ATACAAGA,0.0377
2,AACTGACC,-0.019
3,CGATGTAA,-0.045
4,CCCAATGA,-0.132
5,AAGGTGCT,-0.244
6,TCGAAAGA,0.133
7,CTAAGCAC,0.0214
8,GACTAGGC,-0.173
9,AGGGTCGG,-0.0268
10,AGAGCACT,0.0142
11,CGGGTATA,0.196
12,CCCTTGCG,-0.361
13,TATACCCA,-0.00854
14,ATGCGTAA,-0.234
15,CGCAAGTC,-0.215
16,AGTGTATC,-0.0625
17,AGTCCCCG,-0.141
18,AATTGATC,0.0994
19,AGTGAGAT,-0.107
20,CCGCTGGC,-0.164
21,GAAACACC,0.114
22,CATAAGGG,-0.00069

# From the supplement of paper PMC3334620
